Laboratory results as given in patent US7378416B2.

Chains of the proteins cited; added tags and fusions are not shown. Residues count along the entry.
UniProt P14174, 2-115 limits assumed: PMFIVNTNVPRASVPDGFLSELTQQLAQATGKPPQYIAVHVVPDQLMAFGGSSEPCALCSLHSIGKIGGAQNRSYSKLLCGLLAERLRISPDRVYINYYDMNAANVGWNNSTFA

Target: Human MIF protein (Homo sapiens, UniProt P14174)
Test: MIF tautomerase HPP assay adapted to the microtiter plate format
Conditions: read-out: inhibition of MIF tautomerase activity, half-maximal inhibition (IC50); substrate p-hydroxyphenylpyruvate (HPP) 200 μM, enzyme 18.3 nM, pH 6.5, OD 310 nm
Protocol: The natural substrates of MIF enzyme activity are not yet known with certainty. […] The assay used herein is such HPP assay adapted to the microtiter plate format: • Human MIF protein is purified according to Bernhagen et al. Biochemistry, 33:14144-14155, 1994. Dilutions of the enzyme are prepared in 50 mM sodium phosphate buffer, 1 mM EDTA, pH 6.5. • HPP is obtained from Aldrich. A stock solution of 60 mM HPP in ethanol is prepared and kept for maximally 4 hours on ice. […] Addition of substrate to start the reaction is performed with an Igel 96 pipetting station (OpalJena, Jena, Germany), which allows simultaneous addition of fluid to all 96 wells of the plates. • Optical density (OD) is determined using a SPECTRAmax 250 reader (Molecular Devices). The reader is operated with the SoftmaxPro 2.6.1 software. • Assay: Three wells of the microtiter plates are filled with buffer only, to allow for blanking. […]
The last step is performed using the 96-channel pipetting device. The plate is then immediately (i.e. within a few seconds) transferred manually to the SPECTRAmax 250 reader and the optical density is determined (310 nm).
From the data obtained, IC50 values are calculated using Excel™ and XLfit™ software.

COc1ccc(N2Cc3ccc(O)cc3OC2=O)cc1
IC50: 20 nM

The match of structure and compound is tentative.
